Our source for the binding values is paper PMC6817822.

Amino acid sequences for entries named in this document (tags omitted). A change or cut given only in a name is not applied to a line headed by its entry.
UniProt P46937: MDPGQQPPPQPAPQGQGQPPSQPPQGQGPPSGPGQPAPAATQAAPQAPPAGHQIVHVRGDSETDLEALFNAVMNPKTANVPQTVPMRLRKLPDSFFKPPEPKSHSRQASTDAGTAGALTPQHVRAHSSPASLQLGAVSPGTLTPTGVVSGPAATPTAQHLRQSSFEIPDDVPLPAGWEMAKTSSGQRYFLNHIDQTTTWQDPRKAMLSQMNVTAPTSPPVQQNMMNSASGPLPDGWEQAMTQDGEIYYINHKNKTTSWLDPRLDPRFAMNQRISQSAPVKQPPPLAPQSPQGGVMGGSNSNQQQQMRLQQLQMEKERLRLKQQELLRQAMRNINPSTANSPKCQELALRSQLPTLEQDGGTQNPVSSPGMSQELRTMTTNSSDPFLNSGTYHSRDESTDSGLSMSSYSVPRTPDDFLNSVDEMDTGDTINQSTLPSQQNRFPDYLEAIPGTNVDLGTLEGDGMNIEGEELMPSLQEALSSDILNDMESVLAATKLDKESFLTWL
UniProt P67775: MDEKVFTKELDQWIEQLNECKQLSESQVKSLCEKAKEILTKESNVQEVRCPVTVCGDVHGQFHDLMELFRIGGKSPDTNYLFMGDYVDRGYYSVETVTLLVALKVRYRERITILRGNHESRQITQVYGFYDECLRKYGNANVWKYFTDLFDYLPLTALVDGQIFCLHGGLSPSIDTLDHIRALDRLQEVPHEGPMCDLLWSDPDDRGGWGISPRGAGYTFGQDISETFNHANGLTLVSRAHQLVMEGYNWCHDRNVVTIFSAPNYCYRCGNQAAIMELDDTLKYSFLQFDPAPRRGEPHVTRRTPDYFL

In the assay the target is Yes-associated protein (YAP) (human (endogenous in CD18/HPAF)) (UniProt P46937). The experiment in a line: co-IP; reciprocal co-immunoprecipitation from 1 mg lysate of CD18/HPAF cells expressing Control-shRNA or PR55α-shRNA, with anti-PR55α (100C1) or anti-YAP antibody; immunoblotting; nonimmunized IgG as control; in Fig. 6b half of the anti-PR55α precipitate was treated with shrimp alkaline phosphatase (10 units/ml, 37 °C, 1 h).

No constants are given. Whether binding was seen depends on the method and setting. Binding seen in cells or lysates may run through a third protein. Binding calls can cover weak binding; strength is not graded here.

On to “PP2A-C subunit (catalytic subunit) (from UniProt P67775)”, for which the binding entry was “binds”.
